At least one read-out could not be matched to a standard name with certainty.
Experiment: Test Example 2b, absorbability of solid dispersion containing Compound 14 in rats
Type: in vivo, rats (Crl:CD (SD))
Conditions: rat, oral; vs crystalline drug substance (Comparative Reference Example 12b)

## N#Cc1cc(-c2nc3c(O)ncnc3s2)ccc1Oc1ccccc1 [Comparative Reference Example 11b, 2-(3-Cyano-4-phenoxyphenyl)-7-hydroxythiazolo[5,4-d]pyrimidine]
  absorption-improving effect on Cmax and AUC compared with the drug substance: higher

Reference: US20220323441A1, “THERAPEUTIC FOR GOUT OR HYPERURICEMIA” (Nippon Chemiphar Co., Ltd., priority 2019, published 2022)
